Source: the supplement of paper PMC12595434, “Development of retinoid nuclear receptor pathway antagonists through targeting aldehyde dehydrogenase 1A3” (iScience, 2025)
The other results are listed elsewhere or left out. Single values of this set are uncertain.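 Many melting curves are irregular; where none melted, Tm was taken as 64 °C.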

The chains behind the UniProt entries cited, without tags or fusion partners. Where a name states a change or a piece, a line headed by the entry shows the natural chain unless it says otherwise.
UniProt Q9Y244: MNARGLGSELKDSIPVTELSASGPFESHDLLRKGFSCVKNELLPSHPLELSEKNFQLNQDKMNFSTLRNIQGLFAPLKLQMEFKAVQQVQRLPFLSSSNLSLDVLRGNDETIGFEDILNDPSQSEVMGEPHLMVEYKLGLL
UniProt Q9UH62: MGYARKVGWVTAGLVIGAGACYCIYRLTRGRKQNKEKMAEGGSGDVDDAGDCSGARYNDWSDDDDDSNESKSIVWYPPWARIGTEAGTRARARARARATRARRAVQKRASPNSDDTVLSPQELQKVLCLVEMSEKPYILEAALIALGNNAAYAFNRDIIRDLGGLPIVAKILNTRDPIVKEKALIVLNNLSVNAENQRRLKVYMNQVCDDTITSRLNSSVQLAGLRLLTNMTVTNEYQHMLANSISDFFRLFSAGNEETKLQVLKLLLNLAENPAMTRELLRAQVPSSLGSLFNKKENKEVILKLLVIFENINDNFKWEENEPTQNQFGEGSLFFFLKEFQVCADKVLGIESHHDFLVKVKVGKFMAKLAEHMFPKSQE
UniProt Q9UGN5: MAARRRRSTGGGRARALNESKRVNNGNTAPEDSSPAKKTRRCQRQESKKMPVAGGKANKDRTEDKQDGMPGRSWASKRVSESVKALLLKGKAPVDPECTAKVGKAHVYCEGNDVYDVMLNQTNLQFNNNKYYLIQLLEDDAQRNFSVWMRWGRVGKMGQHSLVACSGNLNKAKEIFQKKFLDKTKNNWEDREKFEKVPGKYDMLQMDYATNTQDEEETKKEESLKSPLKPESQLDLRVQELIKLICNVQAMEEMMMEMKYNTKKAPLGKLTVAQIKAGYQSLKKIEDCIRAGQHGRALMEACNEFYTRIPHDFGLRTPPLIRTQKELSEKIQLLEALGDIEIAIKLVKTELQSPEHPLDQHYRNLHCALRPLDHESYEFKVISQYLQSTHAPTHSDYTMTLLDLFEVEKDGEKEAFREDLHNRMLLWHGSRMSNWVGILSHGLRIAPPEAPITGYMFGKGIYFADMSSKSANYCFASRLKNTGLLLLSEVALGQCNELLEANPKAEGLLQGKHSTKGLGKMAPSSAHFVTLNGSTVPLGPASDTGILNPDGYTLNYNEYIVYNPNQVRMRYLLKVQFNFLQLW
UniProt Q9ULG6: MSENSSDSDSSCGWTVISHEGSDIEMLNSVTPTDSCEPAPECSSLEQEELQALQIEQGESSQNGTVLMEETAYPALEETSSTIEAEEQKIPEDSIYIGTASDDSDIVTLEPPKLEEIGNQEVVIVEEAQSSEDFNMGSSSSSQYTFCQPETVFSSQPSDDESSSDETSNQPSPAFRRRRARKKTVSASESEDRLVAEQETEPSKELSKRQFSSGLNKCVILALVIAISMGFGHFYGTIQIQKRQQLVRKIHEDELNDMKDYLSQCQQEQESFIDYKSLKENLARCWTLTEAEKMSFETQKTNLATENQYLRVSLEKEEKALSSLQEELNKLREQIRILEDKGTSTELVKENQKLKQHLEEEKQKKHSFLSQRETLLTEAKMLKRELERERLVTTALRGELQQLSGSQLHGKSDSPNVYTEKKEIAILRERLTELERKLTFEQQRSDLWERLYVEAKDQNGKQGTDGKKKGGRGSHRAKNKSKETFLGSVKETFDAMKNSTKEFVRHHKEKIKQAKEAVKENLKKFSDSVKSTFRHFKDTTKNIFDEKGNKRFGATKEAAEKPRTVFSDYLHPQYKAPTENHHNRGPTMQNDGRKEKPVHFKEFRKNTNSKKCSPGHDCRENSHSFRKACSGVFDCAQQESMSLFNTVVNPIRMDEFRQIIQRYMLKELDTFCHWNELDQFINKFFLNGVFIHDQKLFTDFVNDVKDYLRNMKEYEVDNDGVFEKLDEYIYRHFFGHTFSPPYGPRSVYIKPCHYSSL
UniProt Q9UHB9: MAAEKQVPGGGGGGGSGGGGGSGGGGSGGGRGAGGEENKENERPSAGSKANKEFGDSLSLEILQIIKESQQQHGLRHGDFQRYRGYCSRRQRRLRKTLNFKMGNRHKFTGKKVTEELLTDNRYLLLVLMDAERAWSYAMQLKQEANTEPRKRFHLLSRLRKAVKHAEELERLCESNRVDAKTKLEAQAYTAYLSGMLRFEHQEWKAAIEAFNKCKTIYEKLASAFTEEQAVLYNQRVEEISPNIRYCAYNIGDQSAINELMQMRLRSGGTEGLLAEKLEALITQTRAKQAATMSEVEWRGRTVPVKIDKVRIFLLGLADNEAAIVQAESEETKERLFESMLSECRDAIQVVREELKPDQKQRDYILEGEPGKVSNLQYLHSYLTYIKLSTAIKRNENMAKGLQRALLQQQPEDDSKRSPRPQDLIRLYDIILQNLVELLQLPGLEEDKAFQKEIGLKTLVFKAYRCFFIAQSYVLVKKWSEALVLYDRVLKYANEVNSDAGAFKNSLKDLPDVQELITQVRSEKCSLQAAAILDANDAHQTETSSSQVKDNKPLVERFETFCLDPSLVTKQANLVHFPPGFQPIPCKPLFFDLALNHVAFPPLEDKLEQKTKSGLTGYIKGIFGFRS
UniProt Q9Y2A7: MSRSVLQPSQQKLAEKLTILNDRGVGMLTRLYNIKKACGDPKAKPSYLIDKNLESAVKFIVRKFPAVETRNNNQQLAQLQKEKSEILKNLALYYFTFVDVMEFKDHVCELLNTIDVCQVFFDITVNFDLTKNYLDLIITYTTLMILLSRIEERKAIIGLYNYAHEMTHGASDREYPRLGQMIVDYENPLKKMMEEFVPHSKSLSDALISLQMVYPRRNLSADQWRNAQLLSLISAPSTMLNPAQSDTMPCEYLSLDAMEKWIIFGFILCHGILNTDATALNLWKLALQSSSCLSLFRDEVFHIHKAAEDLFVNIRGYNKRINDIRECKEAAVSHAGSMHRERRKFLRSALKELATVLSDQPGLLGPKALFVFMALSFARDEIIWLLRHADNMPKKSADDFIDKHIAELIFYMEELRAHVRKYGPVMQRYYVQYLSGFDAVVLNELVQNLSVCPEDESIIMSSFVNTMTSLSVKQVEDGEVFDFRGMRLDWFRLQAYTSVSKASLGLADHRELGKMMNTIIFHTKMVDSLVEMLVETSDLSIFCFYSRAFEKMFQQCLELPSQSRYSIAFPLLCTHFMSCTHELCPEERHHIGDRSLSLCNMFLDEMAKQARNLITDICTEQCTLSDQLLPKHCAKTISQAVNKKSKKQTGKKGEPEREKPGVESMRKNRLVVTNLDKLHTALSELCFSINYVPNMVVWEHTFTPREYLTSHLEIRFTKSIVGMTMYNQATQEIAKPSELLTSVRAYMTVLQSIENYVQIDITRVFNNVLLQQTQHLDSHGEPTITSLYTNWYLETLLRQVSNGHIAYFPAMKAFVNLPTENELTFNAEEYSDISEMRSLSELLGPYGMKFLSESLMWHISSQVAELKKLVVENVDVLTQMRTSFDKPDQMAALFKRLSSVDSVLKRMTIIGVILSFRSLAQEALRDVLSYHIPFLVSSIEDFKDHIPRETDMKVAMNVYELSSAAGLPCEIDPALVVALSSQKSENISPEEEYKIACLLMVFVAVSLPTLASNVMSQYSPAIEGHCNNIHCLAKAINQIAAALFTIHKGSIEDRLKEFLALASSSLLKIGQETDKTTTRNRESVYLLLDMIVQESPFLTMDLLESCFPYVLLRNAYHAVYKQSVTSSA
UniProt Q9UG63: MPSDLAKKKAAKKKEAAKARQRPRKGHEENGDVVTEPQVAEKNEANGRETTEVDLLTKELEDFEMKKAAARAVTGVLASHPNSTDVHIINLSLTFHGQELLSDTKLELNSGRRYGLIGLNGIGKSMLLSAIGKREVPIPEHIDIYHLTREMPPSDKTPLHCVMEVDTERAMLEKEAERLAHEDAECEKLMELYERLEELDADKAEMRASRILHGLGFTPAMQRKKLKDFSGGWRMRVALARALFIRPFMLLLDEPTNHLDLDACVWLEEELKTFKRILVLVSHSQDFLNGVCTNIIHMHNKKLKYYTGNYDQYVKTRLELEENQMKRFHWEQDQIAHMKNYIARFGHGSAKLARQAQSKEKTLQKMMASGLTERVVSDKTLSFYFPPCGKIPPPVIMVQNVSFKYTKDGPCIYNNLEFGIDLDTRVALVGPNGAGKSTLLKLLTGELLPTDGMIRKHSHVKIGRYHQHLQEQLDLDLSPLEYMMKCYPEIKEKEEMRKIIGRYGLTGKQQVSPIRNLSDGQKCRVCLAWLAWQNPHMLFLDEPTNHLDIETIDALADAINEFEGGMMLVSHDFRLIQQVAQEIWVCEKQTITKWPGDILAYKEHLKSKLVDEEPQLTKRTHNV
UniProt Q9UQN3, whole entry: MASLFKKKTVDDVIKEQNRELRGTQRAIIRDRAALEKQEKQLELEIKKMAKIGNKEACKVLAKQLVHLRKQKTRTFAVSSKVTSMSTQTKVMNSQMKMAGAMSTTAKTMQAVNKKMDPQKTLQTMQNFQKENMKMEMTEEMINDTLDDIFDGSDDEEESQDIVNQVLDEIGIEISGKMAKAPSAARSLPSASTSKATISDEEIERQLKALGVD
UniProt Q9UL40: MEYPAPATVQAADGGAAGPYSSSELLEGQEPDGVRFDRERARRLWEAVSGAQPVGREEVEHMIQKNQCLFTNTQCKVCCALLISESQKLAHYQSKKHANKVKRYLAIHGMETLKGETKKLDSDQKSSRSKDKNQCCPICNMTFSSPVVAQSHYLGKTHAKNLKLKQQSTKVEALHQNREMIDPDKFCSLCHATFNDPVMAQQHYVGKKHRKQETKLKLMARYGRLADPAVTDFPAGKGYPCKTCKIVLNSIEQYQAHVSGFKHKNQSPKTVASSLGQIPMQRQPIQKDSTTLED
UniProt Q9UGC7: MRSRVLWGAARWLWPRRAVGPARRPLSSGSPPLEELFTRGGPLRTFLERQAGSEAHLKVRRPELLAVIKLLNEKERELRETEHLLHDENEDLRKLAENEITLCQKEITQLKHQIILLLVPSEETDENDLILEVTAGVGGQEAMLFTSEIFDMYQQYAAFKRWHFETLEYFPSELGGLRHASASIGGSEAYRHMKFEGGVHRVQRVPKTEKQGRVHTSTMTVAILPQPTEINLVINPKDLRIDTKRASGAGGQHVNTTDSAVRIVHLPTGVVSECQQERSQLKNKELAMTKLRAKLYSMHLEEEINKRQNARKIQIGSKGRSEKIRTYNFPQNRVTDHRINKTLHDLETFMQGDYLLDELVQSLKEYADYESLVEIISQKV
UniProt Q9UGP4: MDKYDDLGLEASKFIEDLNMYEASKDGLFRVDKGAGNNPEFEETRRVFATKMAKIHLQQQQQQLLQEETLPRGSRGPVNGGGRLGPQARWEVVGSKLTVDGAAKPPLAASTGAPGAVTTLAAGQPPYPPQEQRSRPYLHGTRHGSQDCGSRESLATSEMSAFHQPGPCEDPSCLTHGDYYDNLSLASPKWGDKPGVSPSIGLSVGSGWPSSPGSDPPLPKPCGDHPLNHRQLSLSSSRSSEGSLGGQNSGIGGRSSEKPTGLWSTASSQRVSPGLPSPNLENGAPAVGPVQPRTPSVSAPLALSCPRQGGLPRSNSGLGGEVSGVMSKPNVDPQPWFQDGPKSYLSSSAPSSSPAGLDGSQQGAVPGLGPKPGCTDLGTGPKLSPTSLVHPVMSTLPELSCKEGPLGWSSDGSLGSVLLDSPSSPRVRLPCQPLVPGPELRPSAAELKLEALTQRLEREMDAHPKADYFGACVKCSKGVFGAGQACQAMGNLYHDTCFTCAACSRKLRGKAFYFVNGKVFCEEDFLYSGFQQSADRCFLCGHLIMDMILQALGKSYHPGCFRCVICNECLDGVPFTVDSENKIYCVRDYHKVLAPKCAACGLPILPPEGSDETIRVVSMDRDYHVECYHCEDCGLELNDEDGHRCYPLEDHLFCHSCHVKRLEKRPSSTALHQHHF
UniProt Q9ULX9: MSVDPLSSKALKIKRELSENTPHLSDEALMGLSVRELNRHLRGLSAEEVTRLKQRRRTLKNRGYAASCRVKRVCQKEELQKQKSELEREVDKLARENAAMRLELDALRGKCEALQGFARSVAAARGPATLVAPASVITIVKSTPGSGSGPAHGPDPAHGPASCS
UniProt Q9Y2G5: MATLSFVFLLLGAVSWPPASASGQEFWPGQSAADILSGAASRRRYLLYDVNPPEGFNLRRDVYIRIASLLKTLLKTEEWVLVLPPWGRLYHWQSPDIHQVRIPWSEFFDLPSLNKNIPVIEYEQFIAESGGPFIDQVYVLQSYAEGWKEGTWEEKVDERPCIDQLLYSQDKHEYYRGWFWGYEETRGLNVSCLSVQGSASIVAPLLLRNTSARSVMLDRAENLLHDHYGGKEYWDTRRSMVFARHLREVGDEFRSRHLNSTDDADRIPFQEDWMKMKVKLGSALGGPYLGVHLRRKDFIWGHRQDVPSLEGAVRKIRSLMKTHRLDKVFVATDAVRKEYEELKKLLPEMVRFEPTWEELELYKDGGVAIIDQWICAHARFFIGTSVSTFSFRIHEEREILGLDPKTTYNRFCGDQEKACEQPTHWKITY
UniProt Q9UL26: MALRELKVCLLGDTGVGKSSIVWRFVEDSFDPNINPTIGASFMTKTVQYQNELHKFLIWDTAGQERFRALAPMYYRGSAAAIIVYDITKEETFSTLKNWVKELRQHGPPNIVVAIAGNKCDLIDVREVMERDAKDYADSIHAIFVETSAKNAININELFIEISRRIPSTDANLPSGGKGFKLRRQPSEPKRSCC

Compound: CCc1cnccc1C(=O)Nc1cc2c(cc1F)NC(=O)CC2
Test: melting temperature shift (DMSO Tm minus MBE1-treated Tm) in cellular thermal proteome profiling; higher = less thermal stabilization by MBE1 (negative = stabilized by MBE1)
Conditions: A375

Target	melting temperature shift (MBE1 concentration: 100 nM)	melting temperature shift (MBE1 concentration: 1 uM)
C19ORF53 (UniProt Q9UNZ5)	-1.88 °C	-2.47 °C
PPIE (UniProt Q9UNP9)	-1.24 °C	-2.07 °C
G3BP2 (UniProt Q9UN86)	0.446 °C	0.519 °C
VPS28 (UniProt Q9UK41)	1.45 °C	-0.812 °C
TBC1D2B (UniProt Q9UPU7)	0.103 °C	-0.677 °C
UniProt Q9Y244	0.334 °C	0.979 °C
CORO1C (UniProt Q9ULV4)	-0.409 °C	-0.00671 °C
PITPNC1 (UniProt Q9UKF7)	0.324 °C	-0.464 °C
USP22 (UniProt Q9UPT9)	-1 °C	-0.154 °C
PACSIN2 (UniProt Q9UNF0)	-0.0122 °C	0.165 °C
UniProt Q9UH62	0.353 °C	0 °C
UniProt Q9UIS9	-0.353 °C	-1.23 °C
PARP2 (UniProt Q9UGN5)	-0.538 °C	-0.327 °C
MCTS1 (UniProt Q9ULC4)	-0.617 °C	-1.53 °C
TMEM2 (UniProt Q9UHN6)	-3.6 °C	-4.05 °C
MGAT4B (UniProt Q9UQ53)	-1.03 °C	-0.55 °C
MRTO4 (UniProt Q9UKD2)	-0.863 °C	-1.11 °C
NENF (UniProt Q9UMX5)	0 °C	-4.12 °C
CCPG1 (UniProt Q9ULG6)	-0.812 °C	0.107 °C
SRP68 (UniProt Q9UHB9)	0.188 °C	0.108 °C
NCKAP1 (UniProt Q9Y2A7)	0.464 °C	0.812 °C
ABCF2 (UniProt Q9UG63)	-0.0366 °C	0.311 °C
MED23 (UniProt Q9ULK4)	-0.496 °C	0.666 °C
CHMP2B (UniProt Q9UQN3)	-1.72 °C	13.7 °C
AGO2 (UniProt Q9UKV8)	0.763 °C	0.409 °C
STUB1 (UniProt Q9UNE7)	-0.448 °C	-0.0384 °C

Full records from above. Order of values: melting temperature shift (MBE1 concentration: 100 nM) | melting temperature shift (MBE1 concentration: 1 uM)
UniProt Q9UIS9 is listed as -0.353 °C | -1.23 °C
PACSIN2 (UniProt Q9UNF0) is listed as -0.0122 °C | 0.165 °C

Carrying on.

Target	melting temperature shift (MBE1 concentration: 100 nM)	melting temperature shift (MBE1 concentration: 1 uM)
UniProt Q9UKU9	-0.899 °C	0.181 °C
WARS2 (UniProt Q9UGM6)	-0.988 °C	-0.851 °C
CPSF3 (UniProt Q9UKF6)	-0.0733 °C	-0.724 °C
UniProt Q9Y2I1	1.47 °C	0.94 °C
MAN1B1 (UniProt Q9UKM7)	1.37 °C	0.739 °C
ZNF346 (UniProt Q9UL40)	-1.33 °C	-0.563 °C
UniProt Q9UNH6	-0.36 °C	0.476 °C
NOB1 (UniProt Q9ULX3)	-0.103 °C	0.0916 °C
MTRF1L (UniProt Q9UGC7)	-0.765 °C	0.537 °C
GTF3C4 (UniProt Q9UKN8)	-1.29 °C	-0.57 °C
LIMD1 (UniProt Q9UGP4)	-0.915 °C	1.43 °C
UniProt Q9ULJ6	-0.448 °C	-0.501 °C
VPS4A (UniProt Q9UN37)	0.299 °C	-0.293 °C
UniProt Q9ULX9	2.11 °C	-0.189 °C
MTMR6 (UniProt Q9Y217)	0.824 °C	-0.342 °C
TPCN1 (UniProt Q9ULQ1)	-2.09 °C	-1.21 °C
POFUT2 (UniProt Q9Y2G5)	0.168 °C	-0.201 °C
TNIK (UniProt Q9UKE5)	-1.14 °C	0.318 °C
CYB5R1 (UniProt Q9UHQ9)	-0.951 °C	0.208 °C
RAB22A (UniProt Q9UL26)	-1.07 °C	1.16 °C
ANAPC7 (UniProt Q9UJX3)	0.0183 °C	-0.00611 °C
ZC3H4 (UniProt Q9UPT8)	-0.532 °C	-2.9 °C
PLAA (UniProt Q9Y263)	-0.442 °C	-0.565 °C
SRRM2 (UniProt Q9UQ35)	0.055 °C	0.843 °C
FBXO9 (UniProt Q9UK97)	-0.055 °C	-0.562 °C
